# Reference: PubChem BioAssay AID540256 (National Center for Advancing Translational Sciences (NCATS), 2011)
# In all, about 300,000 compounds went through this assay and about 3,700 (1.2%) were called active. Inconclusive results, whose numbers are uncertain, are shown with a selection of clear calls. The call rests on the fitted dose curve; tested in HEK293 cells. Potencies of inconclusive entries are doubtful fits and often do not repeat.
# Test: qHTS for Inhibitors of binding or entry into cells for Lassa Virus; further: nearly all actives have a fitted effect of over 50% in size
# Conditions: Lassa virus pseudotype entry inhibition, cell reporter; activity change, negative = inhibition: at 37.9 µM (top of the series) unless noted
# On the % scale 0 is the no-effect control and ±100 the full control effect; potency means the concentration at half of the fitted maximal effect.
Compound,Potency,"activity change, negative = inhibition"
CC(C)(C)c1cc(N2CCOCC2)n2ncc(-c3ccc(Cl)cc3)c2n1,"inconclusive: 11.2 µM [activator, single point]",–
COc1ccc2ncn(-c3ccccc3)c2c1,–,inactive: -5.79%
O=C(CN1c2cccc3cccc(c23)S1(=O)=O)NCc1ccc(F)cc1,"inconclusive: 35.5 µM [inhibitor, partial curve, poor fit]",–
C#CCn1c(C2CC(=O)N(c3ccc(OC)cc3)C2)nc2ccccc21 (centres undefined),–,inactive: 1.4% [at 46.1 µM]
FC(F)(F)c1ccc(NC(=S)NC2CCCCC2)cc1,"inconclusive: 22.4 µM [inhibitor, single point]",–
CC(=O)c1c(C)[nH]c(C(=O)CN(C)CC(=O)Nc2ccccc2Cl)c1C,"inconclusive: 20 µM [inhibitor, partial curve, poor fit]",–
COc1ccc2occ(CC(=O)Nc3ccc(S(=O)(=O)Nc4nccc(C)n4)cc3)c2c1,–,inactive: -2.2% [at 46.1 µM]
Cn1ccsc1=NC(=O)c1ccccc1F,–,inactive: -2.3%
COc1ccc(N2CCN(C(=O)CCCn3c(=S)[nH]c4cc5c(cc4c3=O)OCO5)CC2)cc1,"inconclusive: 0.651 µM [inhibitor, single point]",–
COc1cccc(-c2cc(C(=O)Nc3c(C)nn(Cc4ccccc4Cl)c3C)no2)c1,"inconclusive: 35.5 µM [inhibitor, single point]",–
CN1CCN(C(=O)c2ccc(CN(c3ccccc3)S(=O)(=O)c3ccccc3)cc2)CC1,"inconclusive: 35.5 µM [inhibitor, single point]",–
O=S(=O)(NCC1CCCO1)c1cnc(Cl)c(Cl)c1 (centres undefined),"inconclusive: 31.6 µM [inhibitor, single point]",–
Cc1cc(C)cc(N(CC(=O)NCc2ccc(F)cc2)C(=O)CCC(=O)Nc2ccccn2)c1,"inconclusive: 0.891 µM [inhibitor, full curve]",–
c1ccc2[nH]c(SCCN3CCOCC3)nc2c1,–,inactive: 5.22%
Cc1ccc(-c2c(C#N)c(N)n3c(nc4ccccc43)c2C#N)cc1,"inconclusive: 7.94 µM [inhibitor, partial curve, poor fit]",–
O=C(NCCC1=CCCCC1)C1CCN(C(=O)Cc2ccccc2)CC1,"inconclusive: 22.4 µM [inhibitor, partial curve, poor fit]",–
CCC1(C)CC(=O)c2c(ccc3oc(C(=O)NCc4ccccc4)c(C)c23)O1 (centres undefined),"inconclusive: 35.5 µM [inhibitor, single point]",–
COc1ccc(-n2c(SCC(=O)Nc3cc(C)on3)nc3c([nH]c4ccccc43)c2=O)cc1OC,–,inactive: -19%
COc1ccc(Cl)cc1NC(=O)CN(C)CC(=O)Nc1cccc(S(=O)(=O)N2CCCC2)c1,"inconclusive: 3.55 µM [inhibitor, partial curve, poor fit]",–

# Ordered by SMILES length (ascending): part of the list above.
Compound,Potency,"activity change, negative = inhibition"
Cn1ccsc1=NC(=O)c1ccccc1F,–,inactive: -2.3%
C#CCn1c(C2CC(=O)N(c3ccc(OC)cc3)C2)nc2ccccc21 (centres undefined),–,inactive: 1.4% [at 46.1 µM]
COc1ccc2occ(CC(=O)Nc3ccc(S(=O)(=O)Nc4nccc(C)n4)cc3)c2c1,–,inactive: -2.2% [at 46.1 µM]
